Results are given in words; binding and its absence hold for the method and conditions named. In cells and extracts the contact can be indirect.

By UniProt entry, the sequences of proteins in these tests, tags left out.
UniProt Q9NRC8: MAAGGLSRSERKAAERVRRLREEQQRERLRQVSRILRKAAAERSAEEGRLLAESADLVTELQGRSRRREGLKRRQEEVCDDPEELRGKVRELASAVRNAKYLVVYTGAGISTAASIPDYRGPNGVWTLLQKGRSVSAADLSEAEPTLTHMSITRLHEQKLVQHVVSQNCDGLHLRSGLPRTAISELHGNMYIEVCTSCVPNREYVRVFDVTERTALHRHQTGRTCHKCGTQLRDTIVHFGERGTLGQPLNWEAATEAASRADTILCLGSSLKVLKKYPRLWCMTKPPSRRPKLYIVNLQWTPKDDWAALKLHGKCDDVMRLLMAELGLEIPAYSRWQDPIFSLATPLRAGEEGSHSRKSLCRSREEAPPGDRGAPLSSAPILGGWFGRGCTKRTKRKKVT

Experimental findings from paper PMC9499238, “SIRT5 is a proviral factor that interacts with SARS-CoV-2 Nsp14 protein” (PLoS Pathogens, 2022) are described below.

B1: human SIRT2, endogenous (enzyme, UniProt Q8IXJ6 1-389)
chain: MAEPDPSHPLETQAGKVQEAQDSDSDSEGGAAGGEADMDFLRNLFSQTLSLGSQKERLLDELTLEGVARYMQSERCRRVICLVGAGISTSAGIPDFRSPSTGLYDNLEKYHLPYPEAIFEISYFKKHPEPFFALAKELYPGQFKPTICHYFMRLLKDKGLLLRCYTQNIDTLERIAGLEQEDLVEAHGTFYTSHCVSASCRHEYPLSWMKEKIFSEVTPKCEDCQSLVKPDIVFFGESLPARFFSCMQSDFLKVDLLLVMGTSLQVQPFASLISKAPLSTPRLLINKEKAGQSDPFLGMIMGLGGGMDFDSKKAYRDVAWLGECDQGCLALAELLGWKKELEDLVRREHASIDAQSGAGVPNPSTSASPKKSPPPAKDEARTTEREKPQ

For the assay, the target named is SARS-CoV-2 Nsp14 with a C-terminal 2xStrep affinity tag (SARS-CoV-2) (UniProt P0DTD1). Briefly: pull-down.
Regarding “human SIRT7, endogenous (from UniProt Q9NRC8 1-400) (enzyme)”, the binding result was “no binding”.

On to “human SIRT6, endogenous (from UniProt Q8N6T7 1-355) (enzyme)”, for which the binding entry was “no binding”.

Turning to B1, the binding entry is reported as “no binding”.
